Measured values: PubChem BioAssay AID2685 (National Center for Advancing Translational Sciences (NCATS), 2010)
Some of the results follow. These are further read-outs of the screen, such as a control signal, another cell line or another target. No call is given for them. Most of these compounds were active or inconclusive in the main read-out, so they are no random draw. Potencies come from curve fits of mixed quality, noted in brackets.

Assay: qHTS Assay for Lipid Storage Modulators in Drosophila S3 Cells;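 as to cell number change: cells counted by Cell Tracker Red CMTPX staining in the red channel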
Conditions: BODIPY lipid droplet fluorescence, 18-24 h; for cell number change: measured here: cell count max response, cells fed with added oleic acid
In short: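 Drosophila S3 cells loaded with oleic acid (400 uM, as added) and compounds at several concentrations; lipid droplets imaged by 488-nm laser-scanning cytometry, 500–530 nm intensity and object ratio to cell channel. Percent activity normalized to 20 uM Triacsin C.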

[1] = measured here: lipid fluorescence (Fed channel) AC50, cells fed with added oleic acid
[2] = measured here: cell number channel AC50, cells fed with added oleic acid

Structure (SMILES)	cell number change [%]	AC50 [1]	AC50 [2]
COc1ccc(CNc2ncnc3sccc23)cc1OC	-13.9	–	–
CC1(C)CC(=O)C2=C(C1)N(Cc1ccccc1)C(=O)C2(NC(=O)C(C)(C)C)C(F)(F)F (stereo unspecified)	-12.1	32.6 µM [falling, single point]	–
Cc1ccccc1OCC(=O)NNC(=O)c1ccoc1C	2.99	–	–
COc1ccc2[nH]c(C)c(CCNC(=S)Nc3cc(C)cc(C)c3)c2c1	18.1	0.206 µM [rising, full curve, poor fit]	0.651 µM [rising, full curve, poor fit]
CN=C(N)NC(=O)Nc1c(C)cccc1C	-3.69	0.164 µM [falling, full curve, poor fit]	–
Cc1ccc(Nc2nc(/N=C/NO)n[nH]2)cc1C	-35.3	–	29.1 µM [falling, partial curve, poor fit]
CCCOc1ccc(Cl)cc1/C=C1/C(=O)ON=C1C	17	29.1 µM [rising, single point]	–
CCOC(=O)c1oc2ccc(Cl)cc2c1NC(C)=O	-8.31	2.06 µM [rising, single point]	–
Nc1ccc(N2CCN(c3ccc(Cl)c(Cl)c3)CC2)cc1	-9.36	2.91 µM [rising, single point]	–
CCOC(=O)c1ccc(NC(=S)NCCc2ccccc2)cc1	-24.1	16.4 µM [falling, single point]	–
Cc1cccc(C)c1OCc1cc(C(=O)NC2CCC2)no1	28.1	0.13 µM [falling, full curve, poor fit]	–
COc1cccc(NCc2nnc(SCC(=O)NC3CCS(=O)(=O)C3)n2C2CCCCC2)c1 (stereo unspecified)	–	–	6.51 µM [rising, single point]
COc1ccc(C(=O)Nc2cc([N+](=O)[O-])ccc2N2CCN(C)CC2)cc1	5.33	0.00731 µM [falling, full curve, poor fit]	–
Cc1ccccc1S(=O)(=O)c1c(C)cc(C)n(C)c1=O	-49.2	4.11 µM [falling, full curve, poor fit]	6.51 µM [falling, full curve]
CCc1cccc(NC(=O)Cc2ccc(OC)c(OC)c2)c1	-6.04	–	–
C1CN(c2nc3nonc3nc2N2CCOCC2)CCO1	-9.62	2.59 µM [falling, full curve, poor fit]	–
CC(=O)c1cccc(NC(=O)N2CCCC2C(=O)Nc2ccccc2C)c1 (stereo unspecified)	26.7	29.1 µM [rising, single point]	–
O=C(c1ccccc1)N1CC(COc2ccccc2)OC(c2ccco2)O1 (stereo unspecified)	-11.7	–	–
Cn1nc(C(=O)NNC(=O)C2CSC3(C)CCC(=O)N23)c2ccccc2c1=O (stereo unspecified)	-16.3	3.66 µM [falling, partial curve, poor fit]	–
CN(C)c1ccc(/C=C2\SC(N3CCCCC3)=NC2=O)cc1	12.3	–	–
NC(=O)c1cc(N2C(=O)C3CC=CCC3C2=O)ccc1N1CCCCC1 (stereo unspecified)	33.8	–	29.1 µM [rising, single point]

Sorted by molecular weight (descending): part of the list above.
Structure (SMILES)	cell number change [%]	AC50 [1]	AC50 [2]
CC1(C)CC(=O)C2=C(C1)N(Cc1ccccc1)C(=O)C2(NC(=O)C(C)(C)C)C(F)(F)F (stereo unspecified)	-12.1	32.6 µM [falling, single point]	–
NC(=O)c1cc(N2C(=O)C3CC=CCC3C2=O)ccc1N1CCCCC1 (stereo unspecified)	33.8	–	29.1 µM [rising, single point]
Nc1ccc(N2CCN(c3ccc(Cl)c(Cl)c3)CC2)cc1	-9.36	2.91 µM [rising, single point]	–

Additional structures follow.

Structure (SMILES)	cell number change [%]	AC50 [1]	AC50 [2]
Cc1ccc(Oc2ncccc2C(=O)NCC(=O)O)cc1	-60.5	–	32.6 µM [falling, single point]
O=C(O)CC/C(=N\NC(=O)c1ccccc1Br)c1ccccc1	40.1	20.6 µM [rising, single point]	29.1 µM [rising, single point]
CCn1c2ccccc2c2cc(NC(=O)c3cccc([N+](=O)[O-])c3C)ccc21	23.3	0.116 µM [rising, full curve, poor fit]	0.731 µM [falling, single point]
Nc1c(C(=O)c2ccc(Cl)cc2)sc2nc3c(cc12)CCC3	17.3	0.731 µM [rising, partial curve]	–
CC(=O)c1cccc(NC(=O)CN(c2ccc(F)cc2)S(C)(=O)=O)c1	59.9	–	25.9 µM [rising, partial curve, poor fit]
COc1ccc(N2CC(C)Cn3c2nc2c3c(=O)n(Cc3ccccc3F)c(=O)n2C)c(OC)c1 (stereo unspecified)	-9.34	–	–
COc1ccc(OCC(=O)N2CCN(c3cccc(Cl)c3)CC2)cc1	79.9	–	14.6 µM [rising, partial curve]
Oc1ccccc1-c1cc(-c2ccccc2)no1	9.66	3.26 µM [rising, partial curve]	–
CCCSC1=N/C(=C\C=C\c2ccco2)C(=O)S1	-12.8	6.51 µM [falling, single point]	–
O=C(CCCCl)Oc1ccc2cc(-c3ccc4ccccc4n3)c(=O)oc2c1	38.7	–	29.1 µM [rising, single point]
COc1ccc(CCNC(=O)CSC2=NS(=O)(=O)c3ccccc3N2)cc1OC	-1.36	1.64 µM [falling, partial curve, poor fit]	–
O=Nc1c(O)n(Cc2c(Cl)cccc2Cl)c2ccccc12	-41.3	0.0651 µM [falling, full curve, poor fit]	16.4 µM [falling, partial curve, poor fit]
CCc1ccc(NC(=O)Cn2nc(C)n3cccc3c2=O)cc1	-3.24	0.517 µM [rising, single point]	–
CCOc1cc2c(cc1/C=C/c1noc(C)c1[N+](=O)[O-])OC(C)C2 (stereo unspecified)	115	0.58 µM [falling, single point]	4.11 µM [rising, partial curve]
CCN1C(=O)[C@H]2[C@@H](c3ccc(-c4ccc(Cl)c(Cl)c4)cc3)N[C@@](C)(C(=O)OC)[C@H]2C1=O	-15.7	1.64 µM [falling, partial curve]	–
CCOC(=O)N1CCN(C(=O)CSc2ccc3nnc(-c4cccnc4)n3n2)CC1	-85.2	–	–
CC(=O)/C(=N/Nc1cccc(C)c1)N1CCOCC1	16.3	1.16 µM [rising, partial curve]	–
Cc1cc(COc2ccccc2O)on1	-69.8	–	14.6 µM [falling, partial curve]
CC(OC(=O)COc1cccc2c1OC(C)(C)C2)C(=O)Nc1ccc(S(N)(=O)=O)cc1 (stereo unspecified)	-10	–	–
C=C(C)Cn1c(N2CCN(CC)CC2)nc2c1c(=O)[nH]c(=O)n2C	8.89	1.84 µM [falling, partial curve, poor fit]	–
CC(=O)Nc1cccc(O)c1	20.2	3.66 µM [falling, single point]	–

Structure (SMILES)	cell number change [%]	AC50 [1]	AC50 [2]
Cc1ccccc1OCC(=O)Nc1ccc(S(=O)(=O)Nc2onc(C)c2C)cc1	23.9	–	1.46 µM [rising, partial curve, poor fit]
Cc1cccc(/C=N/n2c(COc3ccccc3)n[nH]c2=S)c1	-46.1	7.31 µM [falling, partial curve]	9.2 µM [falling, partial curve]
O=C(NC1CCCC1)C(c1ccncc1)N(C(=O)Cc1cccs1)c1ccccc1 (stereo unspecified)	-34.1	1.16 µM [falling, single point]	0.92 µM [falling, full curve]
Cc1ccc(NC(=O)c2ccccn2)c(Br)c1	24.3	23.1 µM [rising, single point]	–
O=C(COC(=O)c1ccc(S(=O)(=O)N2CCCCC2)cc1)Nc1ccccc1Cl	–	2.06 µM [falling, partial curve, poor fit]	–
C/C(Cn1cnc([N+](=O)[O-])n1)=N\NC(=O)c1ccc(F)cc1	32.4	23.1 µM [rising, single point]	0.058 µM [rising, partial curve, poor fit]
CC1(C)CC2CC(C)(CN2S(=O)(=O)c2cccc(N)c2)C1 (stereo unspecified)	-32.2	29.1 µM [falling, single point]	16.4 µM [falling, single point]
CC(Sc1ccc(Cl)cc1)C(=O)Nc1ccccc1C(=O)N1CCOCC1 (stereo unspecified)	13.1	0.13 µM [falling, full curve]	–
CN1CCN(c2nc3c(c(=O)[nH]c(=O)n3C)n2CCCSc2nnnn2-c2ccccc2)CC1	-51.7	–	29.1 µM [falling, partial curve, poor fit]
COCC(=O)NCCc1ccc(S(N)(=O)=O)cc1	2.04	6.51 µM [rising, single point]	–
CC1(C)CC(=O)NC=C(c2ccccc2)C1	4.68	2.06 µM [falling, partial curve, poor fit]	–
O=C(Nc1cccnc1Cl)c1cc(-c2ccc(Br)cc2)on1	3.42	29.1 µM [rising, single point]	–
Cc1cc(Br)ccc1NC(=O)c1sc2ncn(CC(=O)N3CCN(c4ccccn4)CC3)c(=O)c2c1C	32.3	23.1 µM [falling, single point]	–
O=C1NC(c2cccc(Cl)c2)Nc2ccccc21 (stereo unspecified)	0.289	6.51 µM [rising, single point]	–
O=C(NCc1ccc(F)cc1)c1cccs1	-25.4	–	–
Cc1cc(C)n2[nH]c(=O)c(N=Nc3cccc(C(F)(F)F)c3)c2n1	-2.09	29.1 µM [falling, single point]	–
Cc1ccc(C(=O)OCc2cc3ccccc3[nH]c2=O)cc1	-21.7	4.61 µM [rising, single point]	–
COc1ccc2nc(NC(=O)CSc3n[nH]c(N)n3)sc2c1	-17.9	2.06 µM [rising, partial curve]	–
CCOC(=O)C1C(c2cccs2)NC(=O)NC1(O)C(F)(F)F (stereo unspecified)	-26.5	29.1 µM [falling, single point]	–
